Results reported in patent EP0479665A2, “1,4-Dihydropyridine derivatives, method for preparing the same and use thereof” (TEIKOKU CHEMICAL INDUSTRIES CO., LTD., priority 1990, dated 1992).
Marks after values point to notes of the source that are not given here.

Columns and labels:
in vivo = details: oral, after a fast, 4-week old mouse, medium DMSO, read-out: Toxicity (LD50)
Protocol: After a fast, a ddy-mouse (4-week old) was orally given a solution obtained by dissolving and/or suspending the compound in each Example 18, 19 and 20 in dimethylsulfoxide (DMSO) or carboxymethylcellulose (CMC). The value of LD50 was calculated from the mortality.

[1] = system: spontaneously hypertensive rats; experiment: Antihypertensive action regarding administration amount, tail-cuff method; assay type: in vivo; details: time for recovery to 50 % of maximal effect (index of persistence); oral dose 10 mg/kg
Protocol: Ten spontaneously hypertensive rats (10 - 20 week old) were used for this test. Blood pressure was measured in accordance with tail-cuff method by employing a blood pressure gauge for small animals UR-1000 (manufactured by Ueda Works, Ltd., Japan). […] The amount of each compound required for lowering the blood pressure of 40 mmHg decrease in blood pressure was calculated from the relationship between the administration amount and the blood pressure after adiministration (lowermost blood pressure). This amount was defined as ED-40 mmHg for serving as an index of antihypertensive action. Tz was shown as the time required for recovery to 50 % of maximal […]. This value was used for an index of persistence.

## COC(=O)C1=C(C)NC(C)=C(C(=O)OC)C1c1ccccc1[N+](=O)[O-] [Nifedipine, nifedipine, reference compound]
In vivo
  LD50: 100 mg/kg
[1]
  T1/2(dose): 4.0 hr(10mg/kg)*
